PubChem BioAssay AID1224828, NIAID | 2016
This is one part, drawn at random, of about 17,000 reagents tested. Over the whole deposit, 762 (4.5%) got an active call. 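Active calls include both raised and lowered p65 entry, mostly lowered; wells with fewer than 50 cells lack a z-score.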 Raw values are not corrected between plates.

- Purpose: 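Knock-downs that increase or decrease LPS-induced p65 nuclear translocation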 (primary screen)
- System: mouse RAW264.7 G9 macrophage reporter cells (GFP-p65, Tnf promoter-mCherry)
- Knock-down reagent: siRNA pool against mouse genes, 100 nM
- Time to read-out: 2 days siRNA transfection, then 40 min LPS before fixation
- Challenge: LPS (Salmonella minnesota R595) at 10 ng/ml
- Measured: 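Microscopy ratio of nuclear to perinuclear-ring GFP-p65 signal, scaled to the plate median; gene score is the average of two replicate robust z-scores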
- Scale: p65 translocation robust z-score: higher = more nuclear NF-kappaB p65 after LPS than the plate median; nuclear/cytoplasmic p65 ratio: higher = more nuclear NF-kappaB p65
- Rule for the call: 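Active if robust z is above 3.3 (negative regulators) or below -1.56, the Tlr4 control median (positive regulators); activity score 50 or more; control wells not called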
- Calls: active = hit (p65 shift raised or lowered); inactive = no clear change

Anapc10 — p65 translocation robust z-score: -0.11; nuclear/cytoplasmic p65 ratio, rep 1: 1.56; nuclear/cytoplasmic p65 ratio, rep 2: 1.64; low cell count flag: enough cells to score; Outcome: inactive
Lyset — p65 translocation robust z-score: -1.7; nuclear/cytoplasmic p65 ratio, rep 1: 1.28; nuclear/cytoplasmic p65 ratio, rep 2: 1.35; low cell count flag: enough cells to score; Outcome: active
Il13 — p65 translocation robust z-score: -0.53; nuclear/cytoplasmic p65 ratio, rep 1: 1.39; nuclear/cytoplasmic p65 ratio, rep 2: 1.28; low cell count flag: enough cells to score; Outcome: inactive
P3h2 — p65 translocation robust z-score: -0.25; nuclear/cytoplasmic p65 ratio, rep 1: 1.58; nuclear/cytoplasmic p65 ratio, rep 2: 1.59; low cell count flag: enough cells to score; Outcome: inactive
Hormad1 — nuclear/cytoplasmic p65 ratio, rep 1: 1.47; low cell count flag: fewer than 50 cells per well; well left out of scoring; Outcome: inactive
Napa — p65 translocation robust z-score: 0.73; nuclear/cytoplasmic p65 ratio, rep 1: 1.8; nuclear/cytoplasmic p65 ratio, rep 2: 1.79; low cell count flag: enough cells to score; Outcome: inactive
2310011J03Rik — p65 translocation robust z-score: -0.76; nuclear/cytoplasmic p65 ratio, rep 1: 1.22; nuclear/cytoplasmic p65 ratio, rep 2: 1.26; low cell count flag: enough cells to score; Outcome: inactive

2 entries already listed, sorted by “nuclear/cytoplasmic p65 ratio, rep 1”, lowest first.
2310011J03Rik — p65 translocation robust z-score: -0.76; nuclear/cytoplasmic p65 ratio, rep 1: 1.22; nuclear/cytoplasmic p65 ratio, rep 2: 1.26; low cell count flag: enough cells to score; Outcome: inactive
Napa — p65 translocation robust z-score: 0.73; nuclear/cytoplasmic p65 ratio, rep 1: 1.8; nuclear/cytoplasmic p65 ratio, rep 2: 1.79; low cell count flag: enough cells to score; Outcome: inactive

The listing continues.
Rnf115 — p65 translocation robust z-score: 0.67; nuclear/cytoplasmic p65 ratio, rep 1: 1.61; nuclear/cytoplasmic p65 ratio, rep 2: 1.32; low cell count flag: enough cells to score; Outcome: inactive
Krt222 — p65 translocation robust z-score: 0.34; nuclear/cytoplasmic p65 ratio, rep 1: 1.37; nuclear/cytoplasmic p65 ratio, rep 2: 1.54; low cell count flag: enough cells to score; Outcome: inactive
4930429B21Rik — nuclear/cytoplasmic p65 ratio, rep 1: 1.55; nuclear/cytoplasmic p65 ratio, rep 2: 1.55; low cell count flag: fewer than 50 cells per well; well left out of scoring; Outcome: inactive
Tifab — p65 translocation robust z-score: 0.66; nuclear/cytoplasmic p65 ratio, rep 1: 1.79; nuclear/cytoplasmic p65 ratio, rep 2: 1.83; low cell count flag: enough cells to score; Outcome: inactive
Dpp10 — p65 translocation robust z-score: 2.29; nuclear/cytoplasmic p65 ratio, rep 1: 1.67; nuclear/cytoplasmic p65 ratio, rep 2: 1.93; low cell count flag: enough cells to score; Outcome: inactive
Cog6 — p65 translocation robust z-score: 0.7; nuclear/cytoplasmic p65 ratio, rep 1: 1.65; nuclear/cytoplasmic p65 ratio, rep 2: 1.93; low cell count flag: enough cells to score; Outcome: inactive
Pafah1b3 — p65 translocation robust z-score: 0.13; nuclear/cytoplasmic p65 ratio, rep 1: 1.42; nuclear/cytoplasmic p65 ratio, rep 2: 1.47; low cell count flag: enough cells to score; Outcome: inactive
Hmgb1 — p65 translocation robust z-score: -0.07; nuclear/cytoplasmic p65 ratio, rep 1: 1.13; nuclear/cytoplasmic p65 ratio, rep 2: 1.55; low cell count flag: enough cells to score; Outcome: inactive
4930578I06Rik — p65 translocation robust z-score: -0.24; nuclear/cytoplasmic p65 ratio, rep 1: 1.23; nuclear/cytoplasmic p65 ratio, rep 2: 1.22; low cell count flag: enough cells to score; Outcome: inactive
Akap7 — p65 translocation robust z-score: 0.06; nuclear/cytoplasmic p65 ratio, rep 1: 1.63; nuclear/cytoplasmic p65 ratio, rep 2: 1.68; low cell count flag: enough cells to score; Outcome: inactive
Bpifa2 — p65 translocation robust z-score: 0.04; nuclear/cytoplasmic p65 ratio, rep 1: 1.38; nuclear/cytoplasmic p65 ratio, rep 2: 1.17; low cell count flag: enough cells to score; Outcome: inactive
Atp7a — p65 translocation robust z-score: -0.59; nuclear/cytoplasmic p65 ratio, rep 1: 1.59; nuclear/cytoplasmic p65 ratio, rep 2: 1.46; low cell count flag: enough cells to score; Outcome: inactive
Ddit4l — p65 translocation robust z-score: 0.34; nuclear/cytoplasmic p65 ratio, rep 1: 1.6; nuclear/cytoplasmic p65 ratio, rep 2: 1.62; low cell count flag: enough cells to score; Outcome: inactive
Anapc1 — p65 translocation robust z-score: 0.77; nuclear/cytoplasmic p65 ratio, rep 1: 1.67; nuclear/cytoplasmic p65 ratio, rep 2: 1.8; low cell count flag: enough cells to score; Outcome: inactive
